Reference: PMC2897763
These are yes or no findings as the source states them, for the method shown. Binding seen in cells or lysates may run through a third protein. Some entries that bind do so weakly or less than the wild type.

Chains of the proteins cited; added tags and fusions are not shown. Residues count along the entry.
UniProt P0DMV8: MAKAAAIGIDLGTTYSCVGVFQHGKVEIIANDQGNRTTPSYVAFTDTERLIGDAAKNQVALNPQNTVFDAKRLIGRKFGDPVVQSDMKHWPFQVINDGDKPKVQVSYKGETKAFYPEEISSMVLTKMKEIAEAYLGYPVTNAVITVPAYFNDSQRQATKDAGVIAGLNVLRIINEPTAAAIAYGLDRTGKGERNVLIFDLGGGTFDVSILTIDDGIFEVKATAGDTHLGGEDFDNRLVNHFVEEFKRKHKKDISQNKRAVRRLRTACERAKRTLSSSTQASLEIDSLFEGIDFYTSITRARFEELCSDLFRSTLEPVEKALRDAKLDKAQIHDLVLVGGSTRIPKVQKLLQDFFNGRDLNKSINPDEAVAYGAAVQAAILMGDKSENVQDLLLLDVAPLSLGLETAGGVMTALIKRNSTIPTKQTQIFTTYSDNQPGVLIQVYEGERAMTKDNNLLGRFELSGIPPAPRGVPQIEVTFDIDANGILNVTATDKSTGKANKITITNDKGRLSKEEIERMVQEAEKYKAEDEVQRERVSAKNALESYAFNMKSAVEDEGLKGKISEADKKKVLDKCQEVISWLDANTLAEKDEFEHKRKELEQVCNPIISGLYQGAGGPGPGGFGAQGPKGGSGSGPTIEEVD
UniProt O75460, residues 19-977: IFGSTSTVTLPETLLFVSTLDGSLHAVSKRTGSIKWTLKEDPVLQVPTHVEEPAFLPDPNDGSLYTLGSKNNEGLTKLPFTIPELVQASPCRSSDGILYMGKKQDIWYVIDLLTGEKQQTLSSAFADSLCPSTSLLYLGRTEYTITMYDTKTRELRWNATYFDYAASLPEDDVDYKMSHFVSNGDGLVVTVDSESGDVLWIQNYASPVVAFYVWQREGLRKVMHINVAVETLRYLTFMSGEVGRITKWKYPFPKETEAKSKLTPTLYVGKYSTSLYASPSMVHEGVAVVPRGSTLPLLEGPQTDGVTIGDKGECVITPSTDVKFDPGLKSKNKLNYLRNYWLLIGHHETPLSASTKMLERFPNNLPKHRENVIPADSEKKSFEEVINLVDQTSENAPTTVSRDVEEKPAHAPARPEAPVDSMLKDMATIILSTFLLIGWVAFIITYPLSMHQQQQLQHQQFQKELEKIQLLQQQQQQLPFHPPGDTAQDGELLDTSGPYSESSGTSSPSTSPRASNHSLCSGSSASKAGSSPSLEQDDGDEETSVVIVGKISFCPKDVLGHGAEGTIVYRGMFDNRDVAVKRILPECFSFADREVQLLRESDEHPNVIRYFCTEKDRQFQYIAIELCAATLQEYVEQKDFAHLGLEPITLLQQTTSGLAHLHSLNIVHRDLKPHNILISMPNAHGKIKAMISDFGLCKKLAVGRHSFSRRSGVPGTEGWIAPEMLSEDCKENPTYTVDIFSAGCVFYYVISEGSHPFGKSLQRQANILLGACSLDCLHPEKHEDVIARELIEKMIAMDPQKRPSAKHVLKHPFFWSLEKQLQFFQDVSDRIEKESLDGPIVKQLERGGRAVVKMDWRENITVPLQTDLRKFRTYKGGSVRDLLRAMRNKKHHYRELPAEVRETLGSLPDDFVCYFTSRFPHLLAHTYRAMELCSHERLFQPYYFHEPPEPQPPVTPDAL
UniProt P63018: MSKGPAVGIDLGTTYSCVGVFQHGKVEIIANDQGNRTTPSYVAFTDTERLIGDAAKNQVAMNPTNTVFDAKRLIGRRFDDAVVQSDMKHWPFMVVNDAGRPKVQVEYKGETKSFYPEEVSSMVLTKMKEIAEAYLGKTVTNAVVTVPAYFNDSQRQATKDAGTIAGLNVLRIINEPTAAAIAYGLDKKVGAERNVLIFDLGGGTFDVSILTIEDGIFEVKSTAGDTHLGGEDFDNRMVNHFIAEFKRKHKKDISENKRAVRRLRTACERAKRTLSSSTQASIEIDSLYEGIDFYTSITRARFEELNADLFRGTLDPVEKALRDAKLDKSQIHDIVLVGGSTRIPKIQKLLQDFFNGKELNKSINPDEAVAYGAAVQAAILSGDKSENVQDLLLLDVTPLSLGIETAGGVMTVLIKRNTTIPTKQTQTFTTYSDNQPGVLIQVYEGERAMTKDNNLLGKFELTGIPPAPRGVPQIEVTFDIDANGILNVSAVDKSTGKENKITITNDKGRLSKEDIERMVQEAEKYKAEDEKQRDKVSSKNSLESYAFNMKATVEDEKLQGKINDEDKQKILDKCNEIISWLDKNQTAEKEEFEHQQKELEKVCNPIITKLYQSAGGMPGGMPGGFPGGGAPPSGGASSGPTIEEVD

Legend:
[1] = target: endogenous Hsp72 of HEK 293 cells (human (endogenous in HEK 293)) (UniProt P0DMV8); test: co-IP; lysates of HEK 293 cells transiently transfected with IRE1α FL-HA or empty vector; endogenous Hsp72 immunoprecipitated with anti-Hsp72 polyclonal antibody (Stressgen SPA-811) overnight at 4°C and protein A-Sepharose, washed with TBS-0.05% Tween, Western blot for IRE1α
[2] = target: IRE1α FL-HA, expressed in PC12 cells (UniProt O75460); test: co-IP; lysates of PC12 cells expressing Hsp72 constructs and transfected with HA-tagged IRE1α constructs; HA-agarose (Pierce HA tagged IP/Co-IP kit) overnight, washed with TBS 0.05% Tween, Western blot; cells untreated or treated with 0.25 µM thapsigargin for 12 h
[3] = target: IRE1α FL-HA, expressed in HEK 293 cells (UniProt O75460); test: co-IP; lysates of HEK 293 cells transiently transfected with IRE1α FL-HA (48 h); IRE1α FL-HA immunoprecipitated, Western blot for endogenous Hsp72

| binding [1] | binding [2] | Substance | also measured |
| --- | --- | --- | --- |
| binds |  | endogenous IRE1α of HEK 293 cells (from UniProt O75460 19-977) |  |
|  | no binding | Hsc70, the constitutive form of Hsp72 (from UniProt P63018 1-646) |  |
|  |  | endogenous Hsp72 of HEK 293 cells (from UniProt P0DMV8 1-641) | binding [3]: binds |
|  | binds | Hsp72 (wild type), stably expressed in PC12 cells (from UniProt P0DMV8 1-641) |  |
| binds |  | IRE1α FL-HA, expressed in HEK 293 cells (from UniProt O75460 19-977) |  |
